Results published in the supplement of paper PMC10727501.
Structures can show the parent of a compound that is named as a salt. The list shows a part of the results. This data set is noisy: repeats of one test often differ as much as different tests do.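 Free-swimming zebrafish larvae were assessed for O-bend response probability to dark flashes (naive: first five; training: remaining flashes across four 60-flash blocks; test: later 60-flash block) and for OMR turning toward alternating leftward/rightward LED motion. Six treated larvae were compared against sixty 0.1% DMSO controls; hits required |SSMD|≥2.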

Key:
Details in all cases: 10 µM; pre-incubation: 30-90 min
[1] = tested on: Danio rerio larvae (5 dpf, TLF); assay: OMR-Perf (SSMD vs DMSO vehicle); higher = higher than vehicle (e.g. higher dark-flash O-bend response probability, or better optomotor performance)
[2] = tested on: Danio rerio larvae (5 dpf, TLF); assay: Prob-Test (SSMD vs DMSO vehicle); higher = higher than vehicle (e.g. higher dark-flash O-bend response probability, or better optomotor performance)
[3] = tested on: Danio rerio larvae (5 dpf, TLF); assay: Prob-Naive (SSMD vs DMSO vehicle); higher = higher than vehicle (e.g. higher dark-flash O-bend response probability, or better optomotor performance)
[4] = tested on: Danio rerio larvae (5 dpf, TLF); assay: Prob-Train (SSMD vs DMSO vehicle); higher = higher than vehicle (e.g. higher dark-flash O-bend response probability, or better optomotor performance)

Row | SMILES | OMR-Perf [1] | Prob-Test [2] | Prob-Naive [3] | Prob-Train [4]
1 | Cc1cnc(NC(=O)Nc2cc(Br)c(C)cc2OC[C@@H]2CNCCO2)cn1 | -0.426 | -0.301 | -0.397 | -0.696
2 | CC(C(=O)O)c1cccc(Oc2ccccc2)c1 (centres undefined) [Fenoprofen calcium hydrate] | -0.612 | -0.243 | -0.388 | -0.384
3 | Cc1cccn2c(=O)c(-c3nnn[n-]3)cnc12.[K+] | 0.0224 | 0.0662 | -0.389 | -0.315
4 | CN1CCCC(n2nc(Cc3ccc(Cl)cc3)c3ccccc3c2=O)CC1.Cl (centres undefined) [Azelastine HCl] | -0.357 | -0.762 | 0.374 | -0.474
5 | O=C(O)CCNC(=O)c1ccccc1 [Betamipron] | -0.49 | 0.602 | -0.0511 | 0.417
6 | O=c1c(-c2ccc(O)cc2)coc2cc(O)cc(O)c12 [Genistein] | 0.0841 | 0.593 | -0.262 | 0.157
7 | CN1CCN(C2=Nc3ccccc3Oc3ccc(Cl)cc32)CC1.O=C(O)CCC(=O)O [Loxapine Succinate] | -0.688 | 0.414 | -0.105 | -0.935
8 | COc1ccccc1Oc1c(NS(=O)(=O)c2ccc(C(C)(C)C)cc2)nc(-c2ncccn2)nc1OCCO.O [Bosentan Hydrate] | 0.217 | 0.23 | 0.389 | 0.12
9 | C[C@@H]1[C@H](C)CC[C@]2(C(=O)O)CC[C@]3(C)C(=CC[C@H]4[C@@]5(C)C[C@@H](O)[C@H](O)[C@@](C)(CO)[C@@H]5CC[C@]43C)[C@@H]12 [Asiatic Acid] | -0.669 | -0.373 | -0.931 | -1.01
10 | Cc1cc(C)c(/C=C2\C(=O)Nc3ccccc32)[nH]1 [Semaxanib (SU5416)] | -0.0243 | -0.88 | -0.701 | -0.763
11 | CCN(CC)CCOC(=O)C1(C2CCCCC2)CCCCC1 [Dicyclomine HCl] | 0.0152 | -0.336 | 0.298 | 0.509
12 | O=C(O)CCc1nc(-c2ccccc2)c(-c2ccccc2)o1 [Oxaprozin] | -0.613 | -0.846 | -1.44 | -2.63
13 | CCOC(=O)[C@H](CCc1ccccc1)N[C@@H](C)C(=O)N1C(=O)N(C)C[C@@H]1C(=O)O [Imidapril HCl] | -0.0182 | 0.393 | 0.573 | 0.439
14 | CCNC1=N[C@@H]2[C@@H](O)[C@H](O)[C@@H](CO)O[C@@H]2S1 [Thiamet G] | 0.177 | -0.383 | 0.312 | -0.0205
15 | Nc1nc(CC(=O)Nc2ccc(CCNC[C@H](O)c3ccccc3)cc2)cs1 [Mirabegron] | 0.364 | -0.323 | -0.156 | 0.131
16 | CN[C@@H](C)C(=O)N[C@H](C(=O)N1CCC[C@H]1C(=O)Nc1snnc1-c1ccccc1)C1CCCCC1 | -0.0443 | 0.367 | 0.0243 | 0.29
17 | Cl.N=C(N)N [Guanidine HCl] | 0.081 | -0.247 | 0.115 | -0.498
18 | NC(N)=NCCN1CCCCCCC1.NC(N)=NCCN1CCCCCCC1.O=S(=O)(O)O [Guanethidine Sulfate] | -0.274 | -0.0238 | 0.433 | -0.245
19 | Cn1c([N+](=O)[O-])cnc1COC(N)=O [Ronidazole] | -0.572 | -0.505 | -0.265 | -0.188
20 | Cc1ccccc1C(OCCN(C)C)c1ccccc1.O=C(O)CC(O)(CC(=O)O)C(=O)O (centres undefined) [Orphenadrine Citrate] | 0.469 | 0.351 | 0.028 | -0.459
21 | N#CSc1cc(SC#N)c(N)nc1N | -0.139 | -0.246 | 0.0934 | -0.881
22 | C=CC(=O)N1CCC[C@@H](n2nc(-c3ccc(Oc4ccccc4)cc3)c3c(N)ncnc32)C1 | -0.712 | -1.96 | -0.397 | -1.58
23 | CCOc1ccccc1N/N=C1/C(=O)N(c2nc(-c3ccccc3)cs2)N=C1C | -0.498 | -0.116 | 0.0292 | -1.13

Sorted by formula weight (low to high): some entries from above.
Row | SMILES | OMR-Perf [1] | Prob-Test [2] | Prob-Naive [3] | Prob-Train [4]
14 | CCNC1=N[C@@H]2[C@@H](O)[C@H](O)[C@@H](CO)O[C@@H]2S1 [Thiamet G] | 0.177 | -0.383 | 0.312 | -0.0205
22 | C=CC(=O)N1CCC[C@@H](n2nc(-c3ccc(Oc4ccccc4)cc3)c3c(N)ncnc32)C1 | -0.712 | -1.96 | -0.397 | -1.58
9 | C[C@@H]1[C@H](C)CC[C@]2(C(=O)O)CC[C@]3(C)C(=CC[C@H]4[C@@]5(C)C[C@@H](O)[C@H](O)[C@@](C)(CO)[C@@H]5CC[C@]43C)[C@@H]12 [Asiatic Acid] | -0.669 | -0.373 | -0.931 | -1.01

Next part

Row | SMILES | OMR-Perf [1] | Prob-Test [2] | Prob-Naive [3] | Prob-Train [4]
24 | CCC(=O)N1CCN(c2ccc(-n3c(=O)ccc4cnc5ccc(-c6cnc7ccccc7c6)cc5c43)cc2C(F)(F)F)CC1 [Torin 1] | -0.0788 | -0.62 | -0.274 | -0.354
25 | Cc1cc(C)c(CNC(=O)c2cc(-c3ccc(CN4CCOCC4)cc3)cc3c2cnn3C2CCCC2)c(=O)[nH]1 | -0.252 | 0.305 | 0 | 0.0861
26 | CC(C)/N=c1/cc2n(-c3ccc(Cl)cc3)c3ccccc3nc-2cc1Nc1ccc(Cl)cc1 [Clofazimine] | -0.363 | -0.636 | -0.134 | -0.211
27 | O=c1[nH]c(=O)n([C@H]2CCCO2)cc1F | 0.156 | -0.126 | 0.0184 | -0.0823
28 | C#Cc1cccc(Nc2ncnc3cc4c(cc23)OCCOCCOCCO4)c1 [Icotinib] | 0.0889 | -0.45 | -0.304 | -0.289
29 | C=CCNC(N)=S [Allylthiourea] | 0.508 | -0.255 | 0.118 | 0.0528
30 | CC(=O)N1CCN(CCOc2ccc(C3CCN(C4=Nn5c(nnc5C(F)(F)F)CC4)CC3)cc2)CC1 | -0.512 | -0.666 | -0.263 | -0.223
31 | CCc1nc(N)nc(N)c1-c1ccc(Cl)cc1 [Pyrimethamine] | 0.507 | -0.172 | 0.584 | 0.107
32 | COc1cc(OC)c(/C=C/S(=O)(=O)Cc2ccc(OC)c(NCC(=O)[O-])c2)c(OC)c1.[Na+] | 0.841 | 0.498 | 0.252 | 0.22
33 | OCc1ccc(O[C@@H]2O[C@@H](CO)[C@@H](O)[C@H](O)[C@H]2O)cc1 [Gastrodin] | 0.684 | 0.426 | -0.0925 | 0.471
34 | CN1CCOC(c2ccccc2)c2ccccc2C1.Cl (centres undefined) [Nefopam HCl] | 0.731 | -0.145 | -0.212 | -0.498
35 | COCCCC/C(=N\OCCN)c1ccc(C(F)(F)F)cc1.O=C(O)/C=C/C(=O)O [Fluvoxamine maleate] | -0.0755 | -0.276 | -0.544 | -0.921
36 | CN1CC(=O)NC1=N [Creatinine] | -0.0196 | -0.291 | -0.0927 | -0.684
37 | CS(=O)(=O)O.Cn1cc(C2=C(c3cn(CCCSC(=N)N)c4ccccc34)C(=O)NC2=O)c2ccccc21 [Ro 31-8220 Mesylate] | 0.326 | 0.0316 | 0.135 | 0.393
38 | CC(C(=O)O)c1ccc(C(=O)c2cccs2)cc1 (centres undefined) [Suprofen] | 0.216 | 0.239 | -0.224 | 0.106
39 | C[C@@H](Oc1cc(-c2cnn(C3CCNCC3)c2)cnc1N)c1c(Cl)ccc(F)c1Cl | 0.631 | -0.355 | -0.16 | 0.113
40 | Cc1cc(NC(=O)C2=C(O)c3ccccc3S(=O)(=O)N2C)no1 [Isoxicam] | 0.129 | 0.0026 | -0.0812 | -0.0233
41 | NC[C@@H]1O[C@H](O[C@H]2[C@H](O)C(O[C@H]3[C@@H](O)[C@H](N)C[C@H](N)[C@H]3O[C@H]3O[C@@H](CN)[C@@H](O)[C@H](O)[C@H]3N)O[C@@H]2CO)[C@@H](N)[C@@H](O)[C@@H]1O.O=S(=O)(O)O (some centres undefined) [Neomycin sulfate] | -0.118 | 0.405 | -0.187 | 0.478
42 | Cc1cc(=O)oc2cc(O)ccc12 [4-Methylumbelliferone (4-MU)] | 0.167 | 0.393 | 0.285 | 0.355
43 | CC(=O)Nc1ccc(C(=O)Nc2ccccc2N)cc1 [CI994 (Tacedinaline)] | -0.77 | 0.0421 | -0.736 | -0.184
44 | CC(C)(C)c1ccc(C(O)CCCN2CCC(C(O)(c3ccccc3)c3ccccc3)CC2)cc1 (centres undefined) [Terfenadine] | -1.24 | -1.14 | 0.433 | -0.471
45 | CS(=O)(=O)c1ccc(-c2cnc(N)c(C(=O)Nc3ccccc3)n2)cc1 | -0.0697 | -0.909 | -0.298 | -0.765
46 | NS(=O)(=O)c1cc2c(cc1Cl)NC(CSCc1ccccc1)=NS2(=O)=O [Benzthiazide] | -0.548 | -0.563 | -0.362 | 0.231
